Test results reported in US20240034757A1.
These are yes or no findings as the source states them, for the method shown.

Sequences of proteins named here, by UniProt entry; tags and fusion partners are left off. A change or cut given only in a name is not applied to a line headed by its entry. Residues count along the entry.
UniProt P42830, residues 41-114: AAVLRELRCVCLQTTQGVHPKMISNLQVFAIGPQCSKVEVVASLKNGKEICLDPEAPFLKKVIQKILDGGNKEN
UniProt O43927, residues 23-109: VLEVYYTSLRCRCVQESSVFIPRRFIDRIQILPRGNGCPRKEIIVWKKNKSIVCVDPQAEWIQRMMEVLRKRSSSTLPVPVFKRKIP
UniProt O00626, residues 25-93: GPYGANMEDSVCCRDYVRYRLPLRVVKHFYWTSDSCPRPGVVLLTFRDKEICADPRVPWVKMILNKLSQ
UniProt P48061, residues 22-89: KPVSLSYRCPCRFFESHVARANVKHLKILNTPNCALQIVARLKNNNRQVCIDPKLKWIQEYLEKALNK
UniProt O00175, residues 27-104: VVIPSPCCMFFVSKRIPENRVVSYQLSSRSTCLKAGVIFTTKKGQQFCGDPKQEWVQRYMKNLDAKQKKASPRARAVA
UniProt P78556, residues 27-96: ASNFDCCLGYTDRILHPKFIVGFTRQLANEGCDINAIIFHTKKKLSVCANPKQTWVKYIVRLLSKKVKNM
UniProt P02776, residues 32-101: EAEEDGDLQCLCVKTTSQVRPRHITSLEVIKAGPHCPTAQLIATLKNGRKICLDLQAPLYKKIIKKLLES
UniProt O00585, residues 24-134: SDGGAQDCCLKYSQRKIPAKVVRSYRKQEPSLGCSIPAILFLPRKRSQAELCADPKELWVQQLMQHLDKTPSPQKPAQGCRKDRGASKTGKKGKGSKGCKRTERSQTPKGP
UniProt O14625, residues 22-94: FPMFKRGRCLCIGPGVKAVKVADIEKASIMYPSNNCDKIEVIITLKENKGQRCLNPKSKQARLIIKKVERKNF
UniProt Q07325, residues 23-125: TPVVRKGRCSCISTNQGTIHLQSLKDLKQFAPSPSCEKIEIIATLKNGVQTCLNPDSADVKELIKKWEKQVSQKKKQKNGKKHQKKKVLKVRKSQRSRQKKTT
UniProt P02778, residues 22-98: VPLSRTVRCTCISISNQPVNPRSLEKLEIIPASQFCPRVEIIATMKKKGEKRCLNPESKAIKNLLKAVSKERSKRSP
UniProt P78423, residues 25-100: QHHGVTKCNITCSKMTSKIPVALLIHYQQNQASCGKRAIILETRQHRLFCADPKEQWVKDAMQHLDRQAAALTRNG
UniProt Q92583, residues 24-94: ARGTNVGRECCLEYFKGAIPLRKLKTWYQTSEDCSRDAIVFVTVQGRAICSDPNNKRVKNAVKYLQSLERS
UniProt P80162, residues 38-114: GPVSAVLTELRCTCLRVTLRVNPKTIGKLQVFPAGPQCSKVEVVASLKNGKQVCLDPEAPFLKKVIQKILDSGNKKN
UniProt P19876, residues 35-107: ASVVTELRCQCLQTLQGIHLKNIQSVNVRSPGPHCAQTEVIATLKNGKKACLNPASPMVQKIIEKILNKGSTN
UniProt Q9Y4X3, residues 25-112: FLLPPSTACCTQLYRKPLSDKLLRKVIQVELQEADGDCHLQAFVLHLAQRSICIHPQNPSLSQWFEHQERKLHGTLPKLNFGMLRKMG
UniProt Q99731, residues 22-98: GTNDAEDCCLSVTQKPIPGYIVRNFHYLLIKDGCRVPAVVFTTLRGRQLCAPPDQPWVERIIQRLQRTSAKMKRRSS
UniProt P09341, residues 35-107: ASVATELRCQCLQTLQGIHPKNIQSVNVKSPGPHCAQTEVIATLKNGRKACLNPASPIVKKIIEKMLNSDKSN
UniProt Q9NRJ3, residues 23-127: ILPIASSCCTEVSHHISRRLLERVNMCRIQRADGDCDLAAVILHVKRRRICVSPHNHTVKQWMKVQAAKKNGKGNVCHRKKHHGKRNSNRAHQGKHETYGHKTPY
UniProt P02775, residues 59-128: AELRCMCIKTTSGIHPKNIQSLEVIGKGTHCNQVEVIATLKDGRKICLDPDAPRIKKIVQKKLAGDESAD
UniProt O95715, residues 35-111: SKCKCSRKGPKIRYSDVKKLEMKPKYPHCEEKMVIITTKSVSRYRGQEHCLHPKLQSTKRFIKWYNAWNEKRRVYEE
UniProt P19875, residues 35-107: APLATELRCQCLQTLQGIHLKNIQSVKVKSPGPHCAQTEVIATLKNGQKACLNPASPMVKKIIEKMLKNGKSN
UniProt P10145, residues 28-99: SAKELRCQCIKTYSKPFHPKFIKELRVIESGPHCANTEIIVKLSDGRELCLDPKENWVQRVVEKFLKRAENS
UniProt L7MC74: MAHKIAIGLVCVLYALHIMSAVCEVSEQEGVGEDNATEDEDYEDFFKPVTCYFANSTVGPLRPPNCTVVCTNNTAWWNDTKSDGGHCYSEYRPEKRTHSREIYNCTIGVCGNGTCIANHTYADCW

Assays:
XCL1_HUMAN (human) = molecular target: T1, XCL1_HUMAN (human) (UniProt P47992); experiment: BLI, empty cell the 12th table, row 59, column 8
T1 sequence: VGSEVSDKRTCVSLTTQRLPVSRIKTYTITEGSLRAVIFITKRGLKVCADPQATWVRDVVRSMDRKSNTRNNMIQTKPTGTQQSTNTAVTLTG

CXCL5_HUMAN (human) = CXCL5_HUMAN (human) (UniProt P42830); experiment: BLI, empty cell the 12th table, row 46, column 8
CXCL13_HUMAN (human) = CXCL13_HUMAN (human) (UniProt O43927); experiment: BLI, empty cell the 12th table, row 54, column 8
CCL22_HUMAN (human) = CCL22_HUMAN (human) (UniProt O00626); experiment: BLI, empty cell the 12th table, row 33, column 8
CXCL12_HUMAN (human) = CXCL12_HUMAN (human) (UniProt P48061); experiment: BLI, empty cell the 12th table, row 53, column 8
CCL24_HUMAN (human) = CCL24_HUMAN (human) (UniProt O00175); experiment: BLI, empty cell the 12th table, row 35, column 8
CCL20_HUMAN (human) = CCL20_HUMAN (human) (UniProt P78556); experiment: BLI, empty cell the 12th table, row 30, column 8
CXCL4_HUMAN (human) = CXCL4_HUMAN (human) (UniProt P02776); experiment: BLI, empty cell the 12th table, row 45, column 8
CCL21_HUMAN (human) = CCL21_HUMAN (human) (UniProt O00585); experiment: BLI, empty cell the 12th table, row 32, column 8
CXCL11_HUMAN (human) = CXCL11_HUMAN (human) (UniProt O14625); experiment: BLI, empty cell the 12th table, row 52, column 8
CXCL9_HUMAN (human) = CXCL9_HUMAN (human) (UniProt Q07325); experiment: BLI, empty cell the 12th table, row 50, column 8
CXCL10_HUMAN (human) = CXCL10_HUMAN (human) (UniProt P02778); experiment: BLI, empty cell the 12th table, row 51, column 8
CX3CL1_HUMAN (human) = CX3CL1_HUMAN (human) (UniProt P78423); experiment: BLI, empty cell the 12th table, row 41, column 8
CCL17_HUMAN (human) = CCL17_HUMAN (human) (UniProt Q92583); experiment: BLI, empty cell the 12th table, row 27, column 8
CXCL6_HUMAN (human) = CXCL6_HUMAN (human) (UniProt P80162); experiment: BLI, empty cell the 12th table, row 47, column 8
CXCL3_HUMAN (human) = CXCL3_HUMAN (human) (UniProt P19876); experiment: BLI, empty cell the 12th table, row 44, column 8
CCL27_HUMAN (human) = CCL27_HUMAN (human) (UniProt Q9Y4X3); experiment: BLI, empty cell the 12th table, row 38, column 8
CCL19_HUMAN (human) = CCL19_HUMAN (human) (UniProt Q99731); experiment: BLI, empty cell the 12th table, row 29, column 8
CXCL1_HUMAN (human) = CXCL1_HUMAN (human) (UniProt P09341); experiment: BLI, empty cell the 12th table, row 42, column 8
CCL28_HUMAN (human) = CCL28_HUMAN (human) (UniProt Q9NRJ3); experiment: BLI, empty cell the 12th table, row 40, column 8
CXCL7_HUMAN (human) = CXCL7_HUMAN (human) (UniProt P02775); experiment: BLI, empty cell the 12th table, row 48, column 8
CXCL14_HUMAN (human) = CXCL14_HUMAN (human) (UniProt O95715); experiment: BLI, empty cell the 12th table, row 55, column 8
CXCL2_HUMAN (human) = CXCL2_HUMAN (human) (UniProt P19875); experiment: BLI, empty cell the 12th table, row 43, column 8
CXCL8_HUMAN (human) = CXCL8_HUMAN (human) (UniProt P10145); experiment: BLI, empty cell the 12th table, row 49, column 8

Measured: binding

P672_RHIPU (from UniProt L7MC74 22-125)
no binding (tested: 300 nM): all assays above
